Results from PubChem BioAssay AID540276 (National Center for Advancing Translational Sciences (NCATS), 2011).
“And” between values parts separate entries of the source, which are not always exact repeats. Equal values may be shown once. In all, about 300,000 compounds went through this assay and about 5,400 (1.8%) were called active. The inconclusive results got no clear call from the source; some entries with a clear call stand among them for comparison. The call rests on the fitted dose curve; tested in HEK293 cells. Where the call is inconclusive, the potency comes from a doubtful curve fit.

Experiment: qHTS for inhibitors of binding or entry into cells for Marburg Virus
Details: Marburg virus pseudotyped entry inhibition, cell reporter; activity change, negative = inhibition: at 37.8 µM (top of the series) unless noted
On the % scale 0 is the no-effect control and ±100 the full control effect; potency means the concentration at half of the fitted maximal effect.

Row | SMILES | Potency | activity change, negative = inhibition
1 | CCCCCOC(=O)C1=C(C)NC(=O)NC1c1ccc([N+](=O)[O-])cc1 (configuration not stated) | inconclusive: 35.5 µM [inhibitor, single point] | –
2 | Cc1nc2ccccc2cc1C(=O)N/N=C/c1cccs1 | – | inactive: -11.4%
3 | CC(=O)NC1C2CN3CCN(C2)CC1(Cc1ccccc1)C3 (configuration not stated) | inconclusive: 0.112 µM [activator, full curve, poor fit] | –
4 | CC(=O)Nc1cccc(-c2csc(Nc3cc(C)ccn3)n2)c1 | inconclusive: 32.6 µM [inhibitor, single point] | –
5 | CCn1cc(C(=O)NCCCN2CCCC2)c(=O)c2cc(S(=O)(=O)N3CCc4ccccc4C3)ccc21 | inconclusive: 29.1 µM [inhibitor, single point] | –
6 | O=S(=O)(c1ccccc1)c1nc(-c2cccs2)oc1N1CCCCC1 | – | inactive: -19.7% [at 46.1 µM]
7 | O=C(O)/C=C/C(=O)Nc1ccc(Cl)c(C(=O)O)c1 | – | inactive: 19.8%
8 | O=C1C2C3C=CC(C3)C2C(=O)N1/N=C/c1cn(Cc2ccc(F)cc2)c2ccccc12 (configuration not stated) | inconclusive: 35.5 µM [inhibitor, single point] | –
9 | CC(NC(=O)c1ccc(CSc2nc3ccncc3n2Cc2ccc(F)cc2)cc1)c1ccccc1 (configuration not stated) | inconclusive: 35.5 µM [inhibitor, single point] | –
10 | COc1ccc(CN2CCN(C(=O)c3ccco3)CC2)cc1OCc1ccccc1 | inconclusive: 35.5 µM [inhibitor, single point] | –
11 | Nc1cccc(-c2nc3ccccc3s2)c1 | – | inconclusive: 30% [activator] [at 46.1 µM]
12 | CC(C)(C)NCC(O)COCc1ccc(Cl)cc1 (configuration not stated) | inconclusive: 35.5 µM [inhibitor, single point] | –
13 | Cn1c(CO)c(-c2ccccc2)c2cc([N+](=O)[O-])ccc21 | – | inactive: -0.0517%
14 | CCCOc1ccc(C(=O)NCC(c2ccc(OC)cc2)N2CCCCC2)cc1 (configuration not stated) | inconclusive: 10 µM [inhibitor, partial curve, poor fit] | –
15 | CC(C)Cn1c(=O)c2c(nc3n2CC(C)CN3Cc2ccccc2)n(C)c1=O (configuration not stated) | inconclusive: 35.5 µM [inhibitor, single point] | –
16 | CCSc1nnc(NC(=O)c2c(C)noc2C)s1 | inconclusive: 1.78 µM [activator, full curve] | –
17 | CC(C)(C)Nc1nc(Cl)nc(Nc2ccccc2)n1 | inconclusive: 0.316 µM [activator, full curve, poor fit] | –
18 | COC(=O)C1=C(C)N(Cc2ccccc2)C(=NCCc2ccccn2)NC1c1cccc(C(F)(F)F)c1 (configuration not stated) | inconclusive: 5.96 µM [inhibitor, single point] | –
19 | CC(=NNc1ccccc1)C(C)=NNc1ccccc1 | – | inactive: 2.44%
20 | O=C(Nc1ccccc1)Nc1cccc2cccnc12 | inconclusive: 6.51 µM [activator, single point] | –
21 | Cc1cc(C(=O)COC(=O)Cc2n[nH]c(=O)c3ccccc23)c(C)n1-c1ccc2c(c1)OCO2 | – | inactive: -22.8%
22 | O=C(NCCCCc1ccccc1)c1nn(-c2ccccc2F)nc1CO | – | inactive: -2.46% [at 46.1 µM]
23 | Cc1ccc(C)c(S(=O)(=O)N2CCN(C(=O)Cc3ccsc3)CC2)c1 | – | inactive: 21.8%
24 | CCc1c(OC(C)=O)c2ccccc2n(C)c1=O | inconclusive: 5.62 µM [activator, single point] | –

Row | SMILES | Potency | activity change, negative = inhibition
25 | CC(/C=N/NC(=O)Cn1nnc(N)n1)=C\c1ccc(C(C)C)cc1 | – | inactive: 2.9% [at 46.1 µM]
26 | Cc1ccc(CNC(=O)CN(C)S(=O)(=O)c2ccc(Br)s2)cc1 | – | inactive: -0.966% [at 46.1 µM]
27 | Cc1cc(Br)ccc1NC(=O)c1coc(=O)c2ccccc12 | – | inactive: 14.8% [at 46.1 µM]
28 | Cc1ccc(NC(=O)Nc2ccc3c(c2)nnn3C)cc1C | – | inactive: 13.6% [at 46.1 µM]
29 | CCOc1ccccc1CNC(=O)CCCN1C(=O)COc2ccc(C)cc21 | – | inactive: 12.7% [at 46.1 µM]
30 | COc1ccc(-c2cn(-c3ccc(C)cc3)c(S(=O)(=O)CC(=O)Nc3ccccc3)n2)cc1 | – | inactive: 3.44% [at 46.1 µM]
31 | COc1cccc2cc(C(=O)NCCc3c[nH]c4ccccc34)c(=O)oc12 | inconclusive: 29.1 µM [inhibitor, single point] | –
32 | C/C(=N\NC(=O)c1n[nH]c2c1CCC2)c1ccco1 | inconclusive: 7.08 µM [inhibitor, partial curve, poor fit] | –
33 | COc1cccc(CN2CCN(Cc3ccc4cccc(F)c4n3)CC2CCO)c1 (configuration not stated) | inconclusive: 20 µM [inhibitor, single point] | –
34 | N#Cc1cccc(Nc2c3c(nc4ccccc24)CCC3)c1 | inconclusive: 25.1 µM [inhibitor, single point] | –
35 | CN(C)c1cccc(C(=O)NNC(=S)NC2CC3CCC2C3)c1 (configuration not stated) | inconclusive: 2.51 µM [activator, partial curve, poor fit] | –
36 | CCN(CC(=O)Nc1ccccc1C(F)(F)F)C(=O)c1oc2c(Cl)cccc2c1C | inconclusive: 1.26 µM [activator, single point] | –
37 | Cc1c(Cl)cccc1NC(=S)NCCc1ccc(Cl)cc1 | inconclusive: 12.6 µM [inhibitor, partial curve, poor fit] | –
38 | COc1ccc(NC(=O)c2ccc(-c3ccc(-c4noc(C)n4)cc3C)cc2)cc1N1CCN(C)CC1 | active: 2.51 µM | –
39 | COc1cc(F)ccc1CN1CCC(C(=O)Nc2ccc(Oc3ccccc3)nc2)CC1 | inconclusive: 8.91 µM [inhibitor, partial curve, poor fit] | –
40 | O=C(COC(=O)c1cc(S(=O)(=O)Nc2ccccc2Cl)ccc1O)Nc1nc2ccccc2s1 | inconclusive: 12.6 µM [inhibitor, partial curve, poor fit] | –
41 | Cn1cnc([N+](=O)[O-])c1Oc1cccc(O)c1 | – | inactive: -4.43%
42 | O=C(COc1cccc(F)c1)N1c2ccccc2Sc2ccccc21 | inconclusive: 18.4 µM [inhibitor, single point] | –
43 | COc1ccccc1CCNC(=O)C(=O)NCC1CCCN1S(=O)(=O)c1ccccc1 (configuration not stated) | inconclusive: 12.6 µM [inhibitor, partial curve, poor fit] | –
44 | O=C(Nc1nc2ccc(S(=O)(=O)N3CCCC3)cc2s1)c1ccco1 | inconclusive: 35.5 µM [activator, single point] | –
45 | CCC(C)c1ccccc1NC(=O)COc1ccc(-c2nnco2)cc1 (configuration not stated) | inconclusive: 35.5 µM [inhibitor, single point] | –
46 | O=c1c(Br)c(Br)cnn1-c1ccccc1 | inconclusive: 3.98 µM [inhibitor, full curve, poor fit] | –
47 | CCNC(=O)OCC(CC)NC(=O)OCC(C)C (configuration not stated) | – | inactive: 17.5%
48 | Cc1ccccc1N1C(=O)C2C3CC(=O)C(c4ccccc43)C2C1=O (configuration not stated) | – | inactive: 0.562%

Exported comma-delimited: part of the list above.
Row,SMILES,Potency,"activity change, negative = inhibition"
28,Cc1ccc(NC(=O)Nc2ccc3c(c2)nnn3C)cc1C,–,inactive: 13.6% [at 46.1 µM]
39,COc1cc(F)ccc1CN1CCC(C(=O)Nc2ccc(Oc3ccccc3)nc2)CC1,"inconclusive: 8.91 µM [inhibitor, partial curve, poor fit]",–
47,CCNC(=O)OCC(CC)NC(=O)OCC(C)C (configuration not stated),–,inactive: 17.5%

3 entries already listed, arranged by length of the SMILES, rising:
Row | SMILES | Potency | activity change, negative = inhibition
46 | O=c1c(Br)c(Br)cnn1-c1ccccc1 | inconclusive: 3.98 µM [inhibitor, full curve, poor fit] | –
29 | CCOc1ccccc1CNC(=O)CCCN1C(=O)COc2ccc(C)cc21 | – | inactive: 12.7% [at 46.1 µM]
43 | COc1ccccc1CCNC(=O)C(=O)NCC1CCCN1S(=O)(=O)c1ccccc1 (configuration not stated) | inconclusive: 12.6 µM [inhibitor, partial curve, poor fit] | –

Further compounds follow:

Row | SMILES | Potency | activity change, negative = inhibition
49 | COC(=O)C1C(=O)C2=C(CC1C)NC(=O)CC2c1ccccc1 (configuration not stated) | – | inactive: 28%
50 | Cc1ccc(S(=O)(=O)Cn2nnnc2CN(Cc2ccco2)Cc2cccs2)cc1 | inactive | –
51 | CCOC(=O)Cc1csc(NC(=O)C2C3C=CC(C3)C2C(=O)O)n1 (configuration not stated) | – | inactive: 7.34% [at 46.1 µM]
52 | C/C(=N\Nc1cccc2cccnc12)c1ccccc1O | inconclusive: 25.1 µM [inhibitor, partial curve, poor fit] | –
53 | CC(OC(=O)CCN=C1NS(=O)(=O)c2ccccc21)C(=O)Nc1ccc(F)cc1Cl (configuration not stated) | – | inactive: -9.73% [at 46.1 µM]
54 | CC(C)(C)c1ccc(C(=O)Nc2ccc(Oc3cccnc3)nc2)cc1 | – | inactive: 9.12%
55 | CN1CCN(c2ccccc2NC(=O)c2cc(Br)ccc2Cl)CC1 | inconclusive: 35.5 µM [inhibitor, single point] | –
56 | Cc1cc(OCc2cc(C(=O)N(Cc3nccn3C)C(C)C)no2)cc(C)c1Cl | inconclusive: 35.5 µM [inhibitor, single point] | –
57 | Cc1cccc(-n2c(N)cc(=O)nc2SCC(=O)Nc2ccc(F)cc2)c1C | – | inactive: -3.52% [at 46.1 µM]
58 | COc1ccc(Br)cc1C(=O)Nc1ccc(-c2nc3ncccc3o2)cc1C | inconclusive: 12.6 µM [activator, single point] | –
59 | CN(C)c1ccc(/C=N/NC(=O)c2ccco2)cc1 | inconclusive: 22.4 µM [inhibitor, single point] | –
60 | N#Cc1ccccc1OCc1nnc(-c2ccccc2Br)o1 | inconclusive: 0.316 µM [activator, full curve, poor fit] | –
61 | CC(C)Cn1c(C2CC(=O)N(c3ccccc3Cl)C2)nc2ccccc21 (configuration not stated) | inconclusive: 3.16 µM [activator, single point] | –
62 | CNC(=O)c1ccc(CNC(=O)OCc2ccccc2)cc1 | – | inactive: 1.26% [at 46.1 µM]
63 | O=C(N1CCN(CCO)CC1)N1c2ccccc2C=Cc2ccccc21 | inconclusive: 0.1 µM [inhibitor, partial curve, poor fit] | –
64 | O=c1c(C=NCCN2CCNCC2)c(O)n(C2CCCCC2)c(=O)n1C1CCCCC1 | active: 20.6 µM | –
65 | COC(=O)c1ccc(NC(=O)C2CC3CCC2C3)cc1 (configuration not stated) | inconclusive: 3.16 µM [activator, single point] | –
66 | N#Cc1ccc(-c2ccc(OCC(=O)Nc3cccnc3)cc2)cc1 | inconclusive: 15.8 µM [inhibitor, single point] | –
67 | Cc1ccc(NC(=O)CSc2ccc(-c3ccc4c(c3)OCO4)nn2)cc1F | inconclusive: 0.1 µM [activator, full curve, poor fit] | –
68 | COc1ccc(C(=O)/C=C/NCc2ccc(F)cc2)cc1OC | – | inactive: -28% [at 14.2 µM]
69 | CCOC(CNC(=O)c1ccc(N2CCc3ccccc32)c([N+](=O)[O-])c1)OCC | inconclusive: 25.9 µM [inhibitor, single point] | –
70 | CN1CCN(C2=C(Cl)C(=O)N(CCc3ccccc3)C2=O)CC1 | – | inactive: -0.834%
71 | CCN(c1ccc(OC)cc1)S(=O)(=O)c1nnc(NC(=O)C(C)C)s1 | inconclusive: 7.94 µM [inhibitor, partial curve] | –
72 | CCN(C(=O)CSc1nnc(Cn2nnc3ccccc32)o1)c1nc(-c2ccccc2)cs1 | inactive and inconclusive: 8.91 µM [inhibitor, partial curve, poor fit] | –
